Q: With `CN1C(=O)CN=C(c2ccccc2)c2cc(Cl)ccc21` as the compound, how does the solubility (mole fraction) (in NMP, 298.2 K) read?
A: 0.0774

Q: And the solubility (mole fraction) (in NMP, 303.2 K)?
A: 0.126

Q: And the solubility (mole fraction) (in NMP, 308.2 K)?
A: 0.138

Q: And the solubility (mole fraction) (in NMP, 313.2 K)?
A: 0.153

Q: And the solubility (mole fraction) (in NMP, 318.2 K)?
A: 0.163

Q: And the solubility (mole fraction) (in PEG-200, 298.2 K)?
A: 0.0157

Q: And the solubility (mole fraction) (in PEG-200, 303.2 K)?
A: 0.0397

Q: What about the solubility (mole fraction) (in PEG-200, 308.2 K) of the same compound?
A: 0.0805

Q: And the solubility (mole fraction) (in PEG-200, 313.2 K)?
A: 0.151

Q: What about the solubility (mole fraction) (in PEG-200, 318.2 K) of the same compound?
A: 0.173

Q: And the solubility (mole fraction) (in ethanol, 298.2 K)?
A: 0.00486

Q: And the solubility (mole fraction) (in ethanol, 303.2 K)?
A: 0.00521

Q: And the solubility (mole fraction) (in ethanol, 308.2 K)?
A: 0.00553

Q: What about the solubility (mole fraction) (in ethanol, 313.2 K) of the same compound?
A: 0.00663

Q: And the solubility (mole fraction) (in ethanol, 318.2 K)?
A: 0.00774

Q: And the solubility (mole fraction) (in propylene glycol, 298.2 K)?
A: 0.00201

Q: What about the solubility (mole fraction) (in propylene glycol, 303.2 K) of the same compound?
A: 0.00275

Q: And the solubility (mole fraction) (in propylene glycol, 308.2 K)?
A: 0.00464

Q: And the solubility (mole fraction) (in propylene glycol, 313.2 K)?
A: 0.00535

Q: What about the solubility (mole fraction) (in propylene glycol, 318.2 K) of the same compound?
A: 0.00679

Q: And the solubility (mole fraction) (in water, 298.2 K)?
A: 1.26e-06

Q: What about the solubility (mole fraction) (in water, 303.2 K) of the same compound?
A: 1.65e-06

Q: And the solubility (mole fraction) (in water, 308.2 K)?
A: 2.39e-06

Q: What about the solubility (mole fraction) (in water, 313.2 K) of the same compound?
A: 2.87e-06

Q: And the solubility (mole fraction) (in water, 318.2 K)?
A: 4.2e-06

Source: BigSolDB 2.1
